Structures are written as SMILES.

The experiment concerns the target T1, Tyrosine-protein kinase JAK3 (Homo sapiens, UniProt P52333).
T1 sequence (P52333 whole entry): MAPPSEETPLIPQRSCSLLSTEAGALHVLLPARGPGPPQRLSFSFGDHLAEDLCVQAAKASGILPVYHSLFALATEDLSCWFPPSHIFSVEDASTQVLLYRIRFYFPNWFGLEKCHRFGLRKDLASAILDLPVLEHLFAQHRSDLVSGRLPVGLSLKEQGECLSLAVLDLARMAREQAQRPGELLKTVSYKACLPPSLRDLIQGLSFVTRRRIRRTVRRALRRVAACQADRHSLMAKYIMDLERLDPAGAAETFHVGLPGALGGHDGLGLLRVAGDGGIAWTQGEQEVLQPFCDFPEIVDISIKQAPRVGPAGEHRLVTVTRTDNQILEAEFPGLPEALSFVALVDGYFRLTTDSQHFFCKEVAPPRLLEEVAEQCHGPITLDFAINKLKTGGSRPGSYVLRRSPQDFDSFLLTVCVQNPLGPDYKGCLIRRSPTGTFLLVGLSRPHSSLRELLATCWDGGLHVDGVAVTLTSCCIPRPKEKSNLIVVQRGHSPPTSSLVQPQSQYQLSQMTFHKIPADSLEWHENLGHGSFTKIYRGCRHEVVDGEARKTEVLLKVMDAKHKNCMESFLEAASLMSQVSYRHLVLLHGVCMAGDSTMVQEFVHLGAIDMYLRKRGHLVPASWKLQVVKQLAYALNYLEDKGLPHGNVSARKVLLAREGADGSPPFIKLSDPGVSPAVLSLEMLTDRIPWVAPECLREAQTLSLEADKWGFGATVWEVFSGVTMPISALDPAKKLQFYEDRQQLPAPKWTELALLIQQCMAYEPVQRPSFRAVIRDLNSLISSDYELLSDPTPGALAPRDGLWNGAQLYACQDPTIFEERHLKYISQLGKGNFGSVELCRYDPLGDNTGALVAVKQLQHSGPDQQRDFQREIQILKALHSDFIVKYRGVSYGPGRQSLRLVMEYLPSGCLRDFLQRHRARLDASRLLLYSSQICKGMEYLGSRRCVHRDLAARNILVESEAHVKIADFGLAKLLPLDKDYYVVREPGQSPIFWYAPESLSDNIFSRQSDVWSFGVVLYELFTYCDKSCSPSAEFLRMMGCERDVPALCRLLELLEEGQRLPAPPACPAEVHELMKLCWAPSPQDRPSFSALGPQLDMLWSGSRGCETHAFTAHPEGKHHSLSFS

The term IC50 denotes the concentration needed to halve the response being measured. For the compound `CN(C)C(=O)/C(C#N)=C/c1ccc(-c2nc3cnc4[nH]ccc4c3n2C2CCCCC2)o1`, the IC50 worked out at 0.154 nM.
